Reference: patent publication US20060127371A1

Biological target: myc-tagged zebrafish Nrarp (zebrafish)
Experiment: co-immunoprecipitation from co-transfected HEK-293 cells (summing-up sentence)

binding: binds
B1: HA-tagged Asb-a (zebrafish Asb-a, full length) (protein, not shown: small tags and cut ends)
chain: MAVVHAEGNVWIKQWDHRFHMYGGQTCSPLMAGSWDDRTPLHDAALQGRLLPLRRLLSQGYNVGMATLDGITALHEACVGGHFTCAKLLLEHGADANAVTFDGATPLFSACCSGNPALVSLILTHSSAHHPAHLLCSPLHEAAKRGHTACVELLLSHGVNVDMELPSVGTALYCACEVKSTDCVLTLLILGADVQCGRGLDTPLHAACRVGGAKEAELLLEHGADRTSRNSEGKTPLDLTSDQSIKHLLQTAGTCSLSQLCRWCIRRSLGQKGLNKTKTLCLPHMLHNYLLYH

Results are given in words; binding and its absence hold for the method and conditions named. In cells and extracts the contact can be indirect. Binding can be weak; no strength is given. Where a sequence is shown, tags or fusion partners need not be part of it.
